No constants are given. Whether binding was seen depends on the method and setting. In cells and extracts the contact can be indirect.
Target: S45Fβ-catenin (V5-tagged, mouse) (mouse) (UniProt Q02248)
Test: co-IP

Amino acid sequences for entries named in this document (tags omitted). A change or cut given only in a name is not applied to a line headed by its entry.
UniProt Q02248: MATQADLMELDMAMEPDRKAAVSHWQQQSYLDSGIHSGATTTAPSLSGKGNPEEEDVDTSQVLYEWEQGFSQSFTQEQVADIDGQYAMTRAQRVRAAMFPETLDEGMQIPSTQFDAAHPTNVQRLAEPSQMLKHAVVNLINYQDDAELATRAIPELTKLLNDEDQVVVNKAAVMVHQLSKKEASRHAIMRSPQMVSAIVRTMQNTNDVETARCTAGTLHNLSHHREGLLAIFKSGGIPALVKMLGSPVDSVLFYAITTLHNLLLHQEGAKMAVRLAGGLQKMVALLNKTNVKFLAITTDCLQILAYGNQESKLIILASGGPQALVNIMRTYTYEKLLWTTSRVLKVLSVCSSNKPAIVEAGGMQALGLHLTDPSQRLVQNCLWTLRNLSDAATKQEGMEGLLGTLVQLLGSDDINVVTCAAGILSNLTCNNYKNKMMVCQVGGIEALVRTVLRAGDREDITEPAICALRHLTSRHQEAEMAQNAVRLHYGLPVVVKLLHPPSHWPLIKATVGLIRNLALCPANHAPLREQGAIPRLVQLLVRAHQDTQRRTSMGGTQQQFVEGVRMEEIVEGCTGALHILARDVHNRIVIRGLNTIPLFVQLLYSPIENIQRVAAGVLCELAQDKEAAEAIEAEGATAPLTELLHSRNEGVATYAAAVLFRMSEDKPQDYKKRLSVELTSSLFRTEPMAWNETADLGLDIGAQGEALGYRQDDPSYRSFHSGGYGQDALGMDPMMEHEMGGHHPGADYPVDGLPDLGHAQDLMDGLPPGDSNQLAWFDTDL
UniProt Q06330: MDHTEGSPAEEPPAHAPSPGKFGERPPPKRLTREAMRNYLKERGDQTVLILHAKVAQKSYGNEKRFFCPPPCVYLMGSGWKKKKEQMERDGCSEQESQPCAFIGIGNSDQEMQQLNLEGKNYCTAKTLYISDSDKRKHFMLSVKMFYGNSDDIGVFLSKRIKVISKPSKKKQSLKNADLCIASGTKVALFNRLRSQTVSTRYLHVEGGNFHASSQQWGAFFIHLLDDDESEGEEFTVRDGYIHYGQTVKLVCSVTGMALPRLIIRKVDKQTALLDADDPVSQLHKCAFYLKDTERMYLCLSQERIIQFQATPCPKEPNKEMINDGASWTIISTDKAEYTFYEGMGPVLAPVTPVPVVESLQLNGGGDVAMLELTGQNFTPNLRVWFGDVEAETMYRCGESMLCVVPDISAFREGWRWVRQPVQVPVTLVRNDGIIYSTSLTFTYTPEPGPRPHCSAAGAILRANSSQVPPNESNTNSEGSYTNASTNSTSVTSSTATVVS

In the case of RBPj (from UniProt Q06330 1-500), the binding is reported as “no binding”.
